Data as given in article PMC12748195.
No constants are given. Whether binding was seen depends on the method and setting. In cells and extracts the contact can be indirect. Some binding calls cover weakened binding; strength is not graded here.

Chains of the proteins cited; added tags and fusions are not shown.
UniProt Q9UM07: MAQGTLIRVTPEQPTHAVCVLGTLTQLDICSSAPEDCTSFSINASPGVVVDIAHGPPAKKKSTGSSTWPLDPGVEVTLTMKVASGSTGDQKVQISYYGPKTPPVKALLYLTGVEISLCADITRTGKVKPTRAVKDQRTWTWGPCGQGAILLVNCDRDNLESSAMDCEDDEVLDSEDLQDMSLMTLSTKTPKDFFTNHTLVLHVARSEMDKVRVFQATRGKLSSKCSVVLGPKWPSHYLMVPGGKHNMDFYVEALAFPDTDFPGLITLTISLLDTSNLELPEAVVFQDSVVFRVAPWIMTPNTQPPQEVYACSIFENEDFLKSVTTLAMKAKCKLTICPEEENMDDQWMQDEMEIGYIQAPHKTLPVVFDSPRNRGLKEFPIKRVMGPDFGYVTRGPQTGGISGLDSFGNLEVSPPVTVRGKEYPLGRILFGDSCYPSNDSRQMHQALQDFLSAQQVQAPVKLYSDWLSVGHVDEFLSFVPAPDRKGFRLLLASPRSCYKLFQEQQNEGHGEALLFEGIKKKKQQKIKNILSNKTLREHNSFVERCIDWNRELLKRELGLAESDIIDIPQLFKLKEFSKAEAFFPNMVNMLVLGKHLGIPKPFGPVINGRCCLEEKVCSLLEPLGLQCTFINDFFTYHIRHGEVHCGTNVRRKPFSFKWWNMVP

How the values were obtained:
[1] = target: peptidylarginine deiminase 4 (human (endogenous in primary neutrophils)) (UniProt Q9UM07); assay: condition: only unstimulated, resting neutrophils (no PMA); co-IP; lysate of unstimulated, resting primary human neutrophils (no PMA); protein A/G magnetic beads with anti-PAD4 and anti-S100A8/A9 antibodies, overnight at 4°C; Western blot
[2] = target: peptidylarginine deiminase 4 (human (endogenous in primary neutrophils)) (UniProt Q9UM07); assay: co-IP; lysate of PMA-stimulated primary human neutrophils (IP lysis buffer: 25 mM Tris-HCl pH 7.4, 150 mM NaCl, 1% NP-40, 1 mM EDTA, 5% glycerol); protein A/G magnetic beads with anti-PAD4 and anti-S100A8/A9 antibodies, overnight at 4°C; Western blot; also with DNase I treatment of the lysate before the co-IP (interaction persisted)

- binding [1]: no binding
- binding [2]: binds
B1: S100A8/S100A9 heterodimer (complex, UniProt P05109 1-93; P06702 1-114)
chain 1: MLTELEKALNSIIDVYHKYSLIKGNFHAVYRDDLKKLLETECPQYIRKKGADVWFKELDINTDGAVNFQEFLILVIKMGVAAHKKSHEESHKE
chain 2: MTCKMSQLERNIETIINTFHQYSVKLGHPDTLNQGEFKELVRKDLQNFLKKENKNEKVIEHIMEDLDTNADKQLSFEEFIMLMARLTWASHEKMHEGDEGPGHHHKPGLGEGTP
